Some of the results follow.
Key:
Test in all cases: glycan array binding signal (z-score within array); higher = stronger binding
Conditions in all cases: glycan notation: IUPAC condensed, linker removed
[1] = target: Neu5Ac(a2-6)Gal(b1-4)GlcNAc(b1-3)Gal(b1-4)GlcNAc(b1-3)Gal(b1-4)GlcNAc
Summary of the method: (§1)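 The binding signal is a Z-score computed within each array. Data were drawn from 3228 arrays in the Consortium for Functional Glycomics database, restricted to those with a known protein sequence. Scores were averaged over arrays of the same protein sequence at different concentrations or buffers, and over linkers, and negative values can be taken as non-binding.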

[2] = target: Neu5Ac(a2-6)Gal(b1-4)GlcNAc(b1-3)Gal(b1-4)GlcNAc(b1-3)Gal(b1-4)GlcNAc(b1-2)Man(a1-3)[Neu5Ac(a2-6)Gal(b1-4)GlcNAc(b1-3)Gal(b1-4)GlcNAc(b1-3)Gal(b1-4)GlcNAc(b1-2)Man(a1-6)]GalNAc
Summary of the method: as §1

[3] = target: Neu5Ac(a2-6)Gal(b1-4)GlcNAc(b1-3)Gal(b1-4)GlcNAc(b1-3)GalNAc
Summary of the method: as §1

[4] = target: Neu5Ac(a2-6)Gal(b1-4)GlcNAc(b1-3)Gal(b1-4)GlcNAc(b1-3)[Neu5Ac(a2-6)Gal(b1-4)GlcNAc(b1-3)Gal(b1-4)GlcNAc(b1-6)]GalNAc
Summary of the method: as §1

[5] = target: Neu5Ac(a2-6)Gal(b1-4)GlcNAc(b1-3)Gal(b1-4)GlcNAc(b1-6)[Gal(b1-3)]GalNAc
Summary of the method: as §1

[6] = target: Neu5Ac(a2-6)Gal(b1-4)GlcNAc(b1-3)Gal(b1-4)[Fuc(a1-3)]GlcNAc(b1-3)Gal(b1-4)[Fuc(a1-3)]GlcNAc
Summary of the method: as §1

[7] = target: Neu5Ac(a2-6)Gal(b1-4)GlcNAc(b1-3)GalNAc
Summary of the method: as §1

[8] = target: Neu5Ac(a2-6)Gal(b1-4)GlcNAc(b1-3)[Neu5Ac(a2-6)Gal(b1-4)GlcNAc(b1-6)]GalNAc
Summary of the method: as §1

[9] = target: Neu5Ac(a2-6)Gal(b1-4)GlcNAc(b1-6)GalNAc
Summary of the method: as §1

[10] = target: Neu5Ac(a2-6)Gal(b1-4)GlcNAc(b1-6)[Gal(b1-3)GlcNAc(b1-3)]Gal(b1-4)Glc
Summary of the method: as §1

[11] = target: Neu5Ac(a2-6)Gal(b1-4)GlcNAc(b1-6)[Gal(b1-3)]GalNAc
Summary of the method: as §1

[12] = target: Neu5Ac(a2-6)Gal(b1-4)GlcNAc6S
Summary of the method: as §1

Neu5Ac(a2-6)GalNAc = target: Neu5Ac(a2-6)GalNAc
Summary of the method: as §1

[13] = target: Neu5Ac(a2-6)GalNAc(b1-4)GlcNAc
Summary of the method: as §1

[14] = target: Neu5Ac(a2-6)GalNAc(b1-4)GlcNAc6S
Summary of the method: as §1

[15] = target: Neu5Ac(a2-6)GlcNAc(b1-4)GlcNAc
Summary of the method: as §1

[16] = target: Neu5Ac(a2-6)GlcNAc(b1-4)GlcNAc(b1-4)GlcNAc
Summary of the method: as §1

Neu5Ac(a2-8)Neu5Ac = target: Neu5Ac(a2-8)Neu5Ac
Summary of the method: as §1

[17] = target: Neu5Ac(a2-8)Neu5Ac(a2-3)Gal(b1-3)GalNAc(b1-4)[Neu5Ac(a2-3)]Gal(b1-4)Glc
Summary of the method: as §1

[18] = target: Neu5Ac(a2-8)Neu5Ac(a2-3)Gal(b1-3)GalNAc(b1-4)[Neu5Ac(a2-8)Neu5Ac(a2-3)]Gal(b1-4)Glc
Summary of the method: as §1

[19] = target: Neu5Ac(a2-8)Neu5Ac(a2-3)Gal(b1-4)Glc
Summary of the method: as §1

[20] = target: Neu5Ac(a2-8)Neu5Ac(a2-3)Gal(b1-4)GlcNAc
Summary of the method: as §1

[21] = target: Neu5Ac(a2-8)Neu5Ac(a2-3)[Gal(b1-3)GalNAc(b1-4)]Gal(b1-4)Glc
Summary of the method: as §1

[22] = target: Neu5Ac(a2-8)Neu5Ac(a2-3)[GalNAc(b1-4)]Gal(b1-4)Glc
Summary of the method: as §1

[23] = target: Neu5Ac(a2-8)Neu5Ac(a2-8)Neu5Ac
Summary of the method: as §1

[24] = target: Neu5Ac(a2-8)Neu5Ac(a2-8)Neu5Ac(a2-3)Gal(b1-4)Glc
Summary of the method: as §1

[25] = target: Neu5Ac(a2-8)Neu5Ac(a2-8)Neu5Ac(a2-3)[Gal(b1-3)GalNAc(b1-4)]Gal(b1-4)Glc
Summary of the method: as §1

[26] = target: Neu5Ac(a2-8)Neu5Ac(a2-8)Neu5Ac(a2-3)[GalNAc(b1-4)]Gal(b1-4)Glc
Summary of the method: as §1

[27] = target: Neu5Ac(a2-8)Neu5Ac(a2-8)Neu5Ac(a2-8)Neu5Ac(a2-3)[GalNAc(b1-4)]Gal(b1-4)Glc
Summary of the method: as §1

[28] = target: Neu5Ac(a2-8)Neu5Gc(a2-3)Gal(b1-4)GlcNAc
Summary of the method: as §1

[29] = target: Neu5Ac(b2-6)Gal(b1-4)GlcNAc
Summary of the method: as §1

Neu5Ac(b2-6)GalNAc = target: Neu5Ac(b2-6)GalNAc
Summary of the method: as §1

[30] = target: Neu5Ac9Ac(a2-3)Gal(b1-3)GlcNAc
Summary of the method: as §1

[31] = target: Neu5Ac9Ac(a2-3)Gal(b1-4)GlcNAc
Summary of the method: as §1

[32] = target: Neu5Ac9Ac(a2-6)Gal(b1-4)GlcNAc
Summary of the method: as §1

[33] = target: Neu5Gc(a2-3)Gal(b1-3)GlcNAc
Summary of the method: as §1

[34] = target: Neu5Gc(a2-3)Gal(b1-3)[Fuc(a1-4)]GlcNAc
Summary of the method: as §1

Neu5Gc(a2-3)Gal(b1-4)Glc = target: Neu5Gc(a2-3)Gal(b1-4)Glc
Summary of the method: as §1

[35] = target: Neu5Gc(a2-3)Gal(b1-4)GlcNAc
Summary of the method: as §1

[36] = target: Neu5Gc(a2-3)Gal(b1-4)GlcNAc(b1-3)Gal(b1-4)GlcNAc(b1-2)Man(a1-3)[Neu5Gc(a2-3)Gal(b1-4)GlcNAc(b1-3)Gal(b1-4)GlcNAc(b1-2)Man(a1-6)]Man(b1-4)GlcNAc(b1-4)GlcNAc
Summary of the method: as §1

[37] = target: Neu5Gc(a2-3)Gal(b1-4)[Fuc(a1-3)]GlcNAc
Summary of the method: as §1

[38] = target: Neu5Gc(a2-6)Gal(b1-4)GlcNAc
Summary of the method: as §1

Neu5Gc(a2-6)GalNAc = target: Neu5Gc(a2-6)GalNAc
Summary of the method: as §1

[39] = target: Neu5Gc(a2-8)Neu5Ac(a2-3)Gal(b1-4)GlcNAc
Summary of the method: as §1

[40] = target: Neu5Gc(a2-8)Neu5Gc(a2-3)Gal(b1-4)GlcNAc
Summary of the method: as §1

B1: MUB70 (Lactobacillus reuteri) (protein)
chain: CVHVQYIDGETDQMLRQDDLDGYTDETIPYSTAEGIKKFEGDGYELFKDNFPAGEKFDNDDTNDQFYTVIF
- glycan array binding signal (z-score) [1]: 0.739
- glycan array binding signal (z-score) [2]: 1.78
- glycan array binding signal (z-score) [3]: 0.122
- glycan array binding signal (z-score) [4]: 0.26
- glycan array binding signal (z-score) [5]: -0.198
- glycan array binding signal (z-score) [6]: -0.536
- glycan array binding signal (z-score) [7]: 0.178
- glycan array binding signal (z-score) [8]: -0.196
- glycan array binding signal (z-score) [9]: -0.178
- glycan array binding signal (z-score) [10]: 0.217
- glycan array binding signal (z-score) [11]: 0.315
- glycan array binding signal (z-score) [12]: 2.67
- glycan array binding signal (z-score) (Neu5Ac(a2-6)GalNAc): -0.837
- glycan array binding signal (z-score) [13]: -0.379
- glycan array binding signal (z-score) [14]: -0.232
- glycan array binding signal (z-score) [15]: 1.34
- glycan array binding signal (z-score) [16]: 0.228
- glycan array binding signal (z-score) (Neu5Ac(a2-8)Neu5Ac): -0.59
- glycan array binding signal (z-score) [17]: 0.038
- glycan array binding signal (z-score) [18]: -0.066
- glycan array binding signal (z-score) [19]: -0.58
- glycan array binding signal (z-score) [20]: -0.264
- glycan array binding signal (z-score) [21]: -0.393
- glycan array binding signal (z-score) [22]: -0.927
- glycan array binding signal (z-score) [23]: -0.324
- glycan array binding signal (z-score) [24]: -0.467
- glycan array binding signal (z-score) [25]: 0.384
- glycan array binding signal (z-score) [26]: -0.92
- glycan array binding signal (z-score) [27]: -0.119
- glycan array binding signal (z-score) [28]: 0.375
- glycan array binding signal (z-score) [29]: 0.244
- glycan array binding signal (z-score) (Neu5Ac(b2-6)GalNAc): -0.135
- glycan array binding signal (z-score) [30]: -0.08
- glycan array binding signal (z-score) [31]: 0.798
- glycan array binding signal (z-score) [32]: -0.158
- glycan array binding signal (z-score) [33]: -0.536
- glycan array binding signal (z-score) [34]: -0.763
- glycan array binding signal (z-score) (Neu5Gc(a2-3)Gal(b1-4)Glc): 0.129
- glycan array binding signal (z-score) [35]: 0.866
- glycan array binding signal (z-score) [36]: 1.95
- glycan array binding signal (z-score) [37]: -0.159
- glycan array binding signal (z-score) [38]: -0.476
- glycan array binding signal (z-score) (Neu5Gc(a2-6)GalNAc): -0.535
- glycan array binding signal (z-score) [39]: 0.339
- glycan array binding signal (z-score) [40]: 0.118

From the supplement of paper PMC8728848
